{"source": "patent US20050119300A1", "about": "“Development of novel regulators of angiogenesis” (priority 2002, published 2005)", "note": "Some entries share one result that the patent states for a list of compounds."}
{"test_system": "human vascular endothelial cells (HUVECS)", "test": "Endothelial cell proliferation, 3H-thymidine uptake assay", "assay_type": "cell-based", "procedure": "After 20 h, [^3H]-thymidine (2 μCi/ml) was added to the culture medium for 2-4 h. The [^3H]-thymidine incorporation was stopped with ice-cold PBS (3 washes) and the cells were incubated with cold 10% trichloroacetic acid (TCA) for 10 min at 4C. The cells were further incubated with TCA at room temperature for 10 min and washed three times with PBS. The cells were solubilized overnight with 1N NaOH and neutralized with an equivalent amount of 1N HCl before radioactivity was determined. […]"}
{"smiles": "O=C1NC(=O)c2ccccc21", "note": "[compound 1]", "effect on endothelial cell proliferation (in words)": "promote increased proliferation of endothelial cells"}
{"smiles": "CN1C(=O)c2ccccc2C1=O", "note": "[compound 2]", "effect on endothelial cell proliferation (in words)": "promote increased proliferation of endothelial cells"}
{"smiles": "O=C1c2ccccc2C(=O)N1C1CCCC(O)C1", "note": "(stereo not shown) [compound 3]", "effect on endothelial cell proliferation (in words)": "promote increased proliferation of endothelial cells"}
{"smiles": "C[C@@]12CC=CC[C@]1(C)C(=O)NC2=O", "note": "[compound 4]", "effect on endothelial cell proliferation (in words)": "promote increased proliferation of endothelial cells"}
